{"source": "patent US7553929B2", "about": "“Cell permeable peptides for inhibition of inflammatory reactions and methods of use” (Vanderbilt University, priority 1994, dated 2009)", "type_in_all_cases": "cell-based", "key": {"[1]": {"system": "NIH 3T3 cells", "experiment": "Tyrosine phosphorylation of intracellular proteins (FGF receptor signalling substrates) in NIH 3T3 cells", "conditions": "at concentrations sufficient to induce DNA synthesis"}, "[2]": {"system": "NIH 3T3 cells", "experiment": "[3H]thymidine incorporation (mitogenic response) of NIH 3T3 cells", "conditions": "serum-starved NIH 3T3 cells, 16 h + 4 h", "experimental": "A 26-residue hybrid peptide (referred to as SA, listed herein as SEQ ID NO:3) was designed and synthesized. […] Thus, the SA peptide differs from the SM peptide only in its 7-residue carboxyl terminal “cargo” region. A functional assay was performed in which SA peptide was able to induce a mitogenic response of NIH 3T3 cells measured by [^3H]thymidine incorporation in a manner similar to aFGF bearing, the same NLS. ^18\nIn this functional assay, confluent 3T3 cells grown initially in DMEM containing 10% FBS were transferred to a low serum medium (DMEM containing 0.5% FBS) for 2 days. The test peptides, either SA peptide, SAα pep-tide, ANL peptide, or SM peptide, or aFGF, were added to a fresh low serum medium at the indicated concentrations at 37° C. After 16 hours, [^3H]thymidine was added and 4 hours later, the cells were washed with PBS, treated with trichloroacetic acid, solubilized with 0.15 M NaOH, and the radioactivity was determined in a liquid scintillation counter.\nBars represent the mean±S.E.M. of at least three independent experiments done in triplicate and calculated as multiplicity of counts in the tested sample over the control sample. SA peptide within the concentration range used (0 to 46 μM) was not cytotoxic as determined by staining with fluorescein diacetate/ethidium bromide. ^20"}, "[3]": {"system": "NIH 3T3 cells", "experiment": "DNA synthesis by flow cytometric analysis in serum-starved NIH 3T3 cells", "experimental": "To further confirm the mitogenic activity of the SA peptide, its effect on DNA synthesis was examined. Serum-starved NIH 3T3 cells were treated with SA peptide, fixed, and the DNA concentration was determined by standard flow cytometric analysis. Specifically, confluent NIH 3T3 cells (1.3×10^6 cells) were serum-starved in DMEM containing 0.5% FBS for 2 days. The cells were untreated (control) or treated with SA peptide or aFGF for 20 h, harvested, spun down, and washed with serum-free PBS, three times. The cells were fixed with methanol precooled to −20° C. for DNA analysis carried out by the Flow Cytometry Research Service of Vanderbilt University. The data were the mean ±S.E.M. of six measurements and were analyzed for statistical significance by analysis of variance."}}, "note": "Part of at least one peptide drawing is inferred or uncertain, most often the ends. Where no end group is shown, it is not given here."}
{"sequence": "AAVALLPAVLLALLAPAAANYKKPKL [SA peptide]", "values": [{"measurement": "Tyrosine phosphorylation of intracellular proteins", "setting": "[1]", "value": "did not stimulate the tyrosine phosphorylation"}, {"measurement": "Stimulation of [3H]thymidine incorporation over control", "setting": "[2]", "value": 6, "unit": "fold"}, {"measurement": "Diploid % S Phase", "setting": "[3]; 50 μg ml^−1, 20 h", "value": "6.7 ± 0.9", "unit": "%"}, {"measurement": "Diploid % S Phase", "setting": "[3]; 100 μg ml^−1, 20 h", "value": "13.1 ± 0.5 (P < 0.05) %"}]}
